Results on one molecule are retold here after patent US20170158761A1 (EWHA UNIVERSITY INDUSTRY COLLABORATION FOUNDATION, published 2017).

These are yes or no findings as the source states them, for the method shown. Binding calls can cover weak binding; strength is not graded here.

In assay [1] the target is Del-N11dTCTP (N-terminus deleted dimer TCTP, HRF). As to the kind of experiment: ELISA: biotinylated dTBP2 (0.01 to 10 µM) on streptavidin plate, TCTP protein at 0.2 µg/ml, anti-HRF rabbit antibody detection.
Assay [2] shares this target. The experiment in a line: ELISA on immobilised biotinylated dTBP2.

B1: biotinylated dTBP2 (dTCTP binding peptide 2) (peptide)
peptide: WYVYPSM
modifications: biotin conjugated to the COOH-terminus
On to B1, for which the binding entry in assay [1] and in assay [2] was “binds” throughout.
